Measured values: article PMC3437207

The chains behind the UniProt entries cited, without tags or fusion partners. Where a name states a change or a piece, a line headed by the entry shows the natural chain unless it says otherwise.
UniProt P23909: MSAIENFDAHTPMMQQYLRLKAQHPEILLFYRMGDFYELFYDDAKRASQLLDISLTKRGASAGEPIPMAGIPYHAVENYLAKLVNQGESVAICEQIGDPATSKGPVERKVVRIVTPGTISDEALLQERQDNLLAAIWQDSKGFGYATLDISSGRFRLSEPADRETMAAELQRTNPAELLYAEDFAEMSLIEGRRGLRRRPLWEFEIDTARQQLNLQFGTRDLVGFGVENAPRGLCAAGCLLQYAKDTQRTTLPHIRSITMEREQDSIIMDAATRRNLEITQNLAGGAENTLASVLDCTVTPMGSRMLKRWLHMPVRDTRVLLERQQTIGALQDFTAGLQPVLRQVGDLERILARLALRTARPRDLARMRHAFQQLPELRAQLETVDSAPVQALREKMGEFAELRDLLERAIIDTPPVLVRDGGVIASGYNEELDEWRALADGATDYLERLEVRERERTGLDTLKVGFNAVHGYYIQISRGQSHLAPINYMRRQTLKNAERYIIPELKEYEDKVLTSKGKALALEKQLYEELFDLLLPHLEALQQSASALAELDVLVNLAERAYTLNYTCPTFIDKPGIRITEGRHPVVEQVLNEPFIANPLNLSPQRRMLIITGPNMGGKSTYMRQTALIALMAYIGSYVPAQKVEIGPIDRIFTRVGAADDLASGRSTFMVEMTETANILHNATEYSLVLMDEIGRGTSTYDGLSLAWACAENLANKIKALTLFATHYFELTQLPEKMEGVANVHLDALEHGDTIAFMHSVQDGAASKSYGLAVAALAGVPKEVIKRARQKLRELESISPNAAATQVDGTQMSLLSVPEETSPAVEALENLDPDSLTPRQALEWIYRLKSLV

Biological target: MutS (Escherichia coli) (UniProt P23909)
Assay: EMSA
Conditions: ATPgS above 250 uM, 60 nM MutS, heteroduplex completely free; 20 mM Tris pH 7.6, 5 mM MgCl2, 1 mM DTT, 50 ug/ml BSA, 10 mM KCl, 200 fmol homoduplex competitor, 10-20 fmol labeled DNA in 20 ul; recombinant protein; protein details: His; label: 5' 32P

## CTAGCAAGCTTTCGATTCTAGAAATTCGGC / GCCGAATTTCTAGAATTGAAAGCTTGCTAG [G-T mismatch heteroduplex]
  binding result: no binding

For at least one entry, the source does not settle the construct or the ends of the probe. A negative result means that nothing was seen under these conditions.
